Experimental data published in PMC4258025.
These are yes or no findings as the source states them, for the method shown. In cells and extracts the contact can be indirect. Some results given as binding are weak or reduced against the parent protein; the word gives no strength.

The chains behind the UniProt entries cited, without tags or fusion partners. Where a name states a change or a piece, a line headed by the entry shows the natural chain unless it says otherwise.
UniProt Q96EB6: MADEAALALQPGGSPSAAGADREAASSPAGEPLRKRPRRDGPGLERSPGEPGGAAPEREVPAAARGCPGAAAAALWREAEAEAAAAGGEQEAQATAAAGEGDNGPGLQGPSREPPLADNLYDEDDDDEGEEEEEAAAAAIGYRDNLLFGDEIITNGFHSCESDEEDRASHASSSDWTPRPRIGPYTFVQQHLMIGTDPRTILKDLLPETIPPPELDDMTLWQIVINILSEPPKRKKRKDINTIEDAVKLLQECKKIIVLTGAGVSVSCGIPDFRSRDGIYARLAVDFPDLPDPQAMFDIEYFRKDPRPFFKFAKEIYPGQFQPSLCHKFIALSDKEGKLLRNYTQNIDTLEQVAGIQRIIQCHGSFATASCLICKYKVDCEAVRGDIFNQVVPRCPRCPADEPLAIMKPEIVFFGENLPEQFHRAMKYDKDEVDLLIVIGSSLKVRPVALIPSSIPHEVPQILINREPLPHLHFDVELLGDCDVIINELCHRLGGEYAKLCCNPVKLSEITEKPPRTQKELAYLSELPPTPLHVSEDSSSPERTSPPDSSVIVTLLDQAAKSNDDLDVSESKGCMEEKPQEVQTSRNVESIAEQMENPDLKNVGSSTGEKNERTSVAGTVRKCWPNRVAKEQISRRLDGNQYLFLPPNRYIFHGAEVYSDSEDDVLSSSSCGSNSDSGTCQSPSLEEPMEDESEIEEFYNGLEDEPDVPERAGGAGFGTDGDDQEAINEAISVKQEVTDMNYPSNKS
UniProt Q13485: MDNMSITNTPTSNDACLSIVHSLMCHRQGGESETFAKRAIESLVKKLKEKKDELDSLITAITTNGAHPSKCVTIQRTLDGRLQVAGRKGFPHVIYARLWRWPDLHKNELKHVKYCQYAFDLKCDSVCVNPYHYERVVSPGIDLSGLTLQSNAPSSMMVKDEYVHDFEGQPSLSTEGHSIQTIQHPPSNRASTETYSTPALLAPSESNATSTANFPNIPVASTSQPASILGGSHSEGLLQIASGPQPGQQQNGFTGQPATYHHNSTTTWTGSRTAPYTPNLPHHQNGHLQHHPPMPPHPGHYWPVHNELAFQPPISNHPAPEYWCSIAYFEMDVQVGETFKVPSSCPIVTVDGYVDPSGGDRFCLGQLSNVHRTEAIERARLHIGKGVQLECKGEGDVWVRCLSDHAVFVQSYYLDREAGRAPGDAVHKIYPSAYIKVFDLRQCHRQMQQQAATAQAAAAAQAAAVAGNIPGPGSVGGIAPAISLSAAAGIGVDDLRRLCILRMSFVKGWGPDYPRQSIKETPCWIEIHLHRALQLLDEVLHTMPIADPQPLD

How the values were obtained:
[1] = biological target: sirtuin1 (SIRT1) (human (endogenous in OECM1 and HSC3)) (UniProt Q96EB6); assay: co-IP; nuclear extracts of OECM1 and HSC3 cells, lysed with RIPA buffer; 2 mg protein immunoprecipitated with a SIRT1 or Smad4 antibody (Pierce Crosslink IP Kit); western blot for Smad2, Smad4 and SIRT1; endogenous proteins
[2] = biological target: Smad4 (human (endogenous in OECM1 and HSC3)) (UniProt Q13485); assay: as above

Substance	binding [1]	binding [2]
Smad4 (from UniProt Q13485 1-552)	binds	
sirtuin1 (SIRT1) (from UniProt Q96EB6-1 1-747) (enzyme)		binds
